According to doi:10.1101/2021.01.14.426760:
Results are given in words; binding and its absence hold for the method and conditions named. In cells and extracts the contact can be indirect. Some entries that bind do so weakly or less than the wild type. For some assays here: Sequences can lack the tags named with a protein.

The chains behind the UniProt entries cited, without tags or fusion partners.
UniProt P42003: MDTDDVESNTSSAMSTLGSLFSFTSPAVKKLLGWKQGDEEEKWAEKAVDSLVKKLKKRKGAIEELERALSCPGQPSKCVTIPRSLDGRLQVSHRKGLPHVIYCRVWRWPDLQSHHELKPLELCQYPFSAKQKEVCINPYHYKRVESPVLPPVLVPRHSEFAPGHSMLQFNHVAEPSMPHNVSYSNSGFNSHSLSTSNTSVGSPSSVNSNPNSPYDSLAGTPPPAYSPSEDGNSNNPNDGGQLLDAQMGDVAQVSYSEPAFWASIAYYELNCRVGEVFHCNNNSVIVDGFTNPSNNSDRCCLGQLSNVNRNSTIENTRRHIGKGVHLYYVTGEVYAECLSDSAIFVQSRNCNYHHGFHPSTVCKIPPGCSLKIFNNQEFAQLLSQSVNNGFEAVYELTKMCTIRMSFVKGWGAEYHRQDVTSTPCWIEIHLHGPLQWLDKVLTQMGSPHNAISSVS

What was measured:
[1] = target: T1, GST-Usp (Ultraspiracle) (Drosophila) (UniProt P20153); assay: pull-down
T1 sequence: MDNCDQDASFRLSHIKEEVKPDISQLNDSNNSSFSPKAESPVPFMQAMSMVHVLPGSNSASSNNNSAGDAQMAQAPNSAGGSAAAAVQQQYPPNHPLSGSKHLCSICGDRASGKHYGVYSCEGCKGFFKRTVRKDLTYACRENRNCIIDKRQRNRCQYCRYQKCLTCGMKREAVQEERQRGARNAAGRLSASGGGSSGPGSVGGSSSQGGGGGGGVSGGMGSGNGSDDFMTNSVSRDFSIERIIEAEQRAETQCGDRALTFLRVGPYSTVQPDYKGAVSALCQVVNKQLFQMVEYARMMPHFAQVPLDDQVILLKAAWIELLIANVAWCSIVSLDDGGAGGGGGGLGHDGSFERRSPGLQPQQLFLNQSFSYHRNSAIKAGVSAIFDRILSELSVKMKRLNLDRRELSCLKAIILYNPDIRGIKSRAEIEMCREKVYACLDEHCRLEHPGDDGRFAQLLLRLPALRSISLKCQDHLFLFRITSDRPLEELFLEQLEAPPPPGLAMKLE

[2] = target: T2, GST-EcR (Ecdysone receptor) (Drosophila) (UniProt P34021); assay: pull-down
T2 sequence: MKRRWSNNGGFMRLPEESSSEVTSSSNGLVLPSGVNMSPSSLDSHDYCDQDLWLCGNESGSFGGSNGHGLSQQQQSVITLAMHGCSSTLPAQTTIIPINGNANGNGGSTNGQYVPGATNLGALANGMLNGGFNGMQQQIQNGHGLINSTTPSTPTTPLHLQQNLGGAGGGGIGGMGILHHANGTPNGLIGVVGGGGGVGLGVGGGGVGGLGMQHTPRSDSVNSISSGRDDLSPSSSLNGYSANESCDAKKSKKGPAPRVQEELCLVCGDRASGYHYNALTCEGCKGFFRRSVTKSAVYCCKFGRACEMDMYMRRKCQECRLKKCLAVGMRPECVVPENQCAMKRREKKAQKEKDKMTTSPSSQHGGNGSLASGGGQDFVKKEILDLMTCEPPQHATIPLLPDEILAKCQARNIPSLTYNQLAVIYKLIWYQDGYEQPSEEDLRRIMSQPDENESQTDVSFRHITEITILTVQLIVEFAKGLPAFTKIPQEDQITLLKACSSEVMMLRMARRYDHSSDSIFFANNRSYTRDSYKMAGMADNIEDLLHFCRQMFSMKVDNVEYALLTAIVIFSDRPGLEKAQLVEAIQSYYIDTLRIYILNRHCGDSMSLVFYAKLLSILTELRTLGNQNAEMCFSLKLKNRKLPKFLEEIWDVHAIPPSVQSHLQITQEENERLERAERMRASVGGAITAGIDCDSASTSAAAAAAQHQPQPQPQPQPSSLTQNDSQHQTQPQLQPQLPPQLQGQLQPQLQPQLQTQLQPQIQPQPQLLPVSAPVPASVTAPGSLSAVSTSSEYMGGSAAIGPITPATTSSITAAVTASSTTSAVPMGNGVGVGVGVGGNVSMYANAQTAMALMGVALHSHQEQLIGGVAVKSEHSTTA

[3] = target: T3, Jun, endogenous in embryos (Drosophila (endogenous in embryos)) (UniProt P18289); assay: proximity ligation
T3 sequence: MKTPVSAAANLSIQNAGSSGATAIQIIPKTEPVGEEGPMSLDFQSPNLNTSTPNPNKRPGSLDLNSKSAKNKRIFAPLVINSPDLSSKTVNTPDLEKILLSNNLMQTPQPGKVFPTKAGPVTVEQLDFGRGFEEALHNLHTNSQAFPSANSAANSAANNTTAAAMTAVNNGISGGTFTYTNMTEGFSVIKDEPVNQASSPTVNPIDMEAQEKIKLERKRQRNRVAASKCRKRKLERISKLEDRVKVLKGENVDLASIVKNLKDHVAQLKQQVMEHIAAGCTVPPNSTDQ

[4] = target: pMad, endogenous in embryos (Drosophila (endogenous in embryos)) (UniProt P42003); assay: proximity ligation
[5] = target: GST-Jun (Drosophila) (UniProt P18289); assay: pull-down

For His-Jun (from UniProt P18289 1-289), the binding [1] was “binds” and the binding [2] was “binds”.

B1: Ecdysone receptor (EcR), endogenous in embryos (receptor, UniProt P34021 1-878)
chain: T2 sequence
For B1, the binding [3] was “binds” and the binding [4] was “no binding”.

B2: His-EcR (Ecdysone receptor) (receptor, UniProt P34021 1-878)
chain: T2 sequence
B2 was tested, and the binding [5] was “binds”.
